Laboratory results: PMC6911156

Amino acid sequences for entries named in this document (tags omitted). Residues count along the entry.
UniProt P80370, residues 24-383: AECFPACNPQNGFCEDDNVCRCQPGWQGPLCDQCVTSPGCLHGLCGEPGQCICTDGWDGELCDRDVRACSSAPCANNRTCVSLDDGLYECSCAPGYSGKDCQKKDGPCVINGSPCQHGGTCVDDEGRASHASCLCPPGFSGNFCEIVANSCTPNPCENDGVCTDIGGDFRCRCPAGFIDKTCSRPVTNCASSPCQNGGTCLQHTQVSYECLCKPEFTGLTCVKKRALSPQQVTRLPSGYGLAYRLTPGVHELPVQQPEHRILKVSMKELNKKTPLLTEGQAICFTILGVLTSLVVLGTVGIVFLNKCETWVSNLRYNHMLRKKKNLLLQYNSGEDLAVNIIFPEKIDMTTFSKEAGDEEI
UniProt O75376: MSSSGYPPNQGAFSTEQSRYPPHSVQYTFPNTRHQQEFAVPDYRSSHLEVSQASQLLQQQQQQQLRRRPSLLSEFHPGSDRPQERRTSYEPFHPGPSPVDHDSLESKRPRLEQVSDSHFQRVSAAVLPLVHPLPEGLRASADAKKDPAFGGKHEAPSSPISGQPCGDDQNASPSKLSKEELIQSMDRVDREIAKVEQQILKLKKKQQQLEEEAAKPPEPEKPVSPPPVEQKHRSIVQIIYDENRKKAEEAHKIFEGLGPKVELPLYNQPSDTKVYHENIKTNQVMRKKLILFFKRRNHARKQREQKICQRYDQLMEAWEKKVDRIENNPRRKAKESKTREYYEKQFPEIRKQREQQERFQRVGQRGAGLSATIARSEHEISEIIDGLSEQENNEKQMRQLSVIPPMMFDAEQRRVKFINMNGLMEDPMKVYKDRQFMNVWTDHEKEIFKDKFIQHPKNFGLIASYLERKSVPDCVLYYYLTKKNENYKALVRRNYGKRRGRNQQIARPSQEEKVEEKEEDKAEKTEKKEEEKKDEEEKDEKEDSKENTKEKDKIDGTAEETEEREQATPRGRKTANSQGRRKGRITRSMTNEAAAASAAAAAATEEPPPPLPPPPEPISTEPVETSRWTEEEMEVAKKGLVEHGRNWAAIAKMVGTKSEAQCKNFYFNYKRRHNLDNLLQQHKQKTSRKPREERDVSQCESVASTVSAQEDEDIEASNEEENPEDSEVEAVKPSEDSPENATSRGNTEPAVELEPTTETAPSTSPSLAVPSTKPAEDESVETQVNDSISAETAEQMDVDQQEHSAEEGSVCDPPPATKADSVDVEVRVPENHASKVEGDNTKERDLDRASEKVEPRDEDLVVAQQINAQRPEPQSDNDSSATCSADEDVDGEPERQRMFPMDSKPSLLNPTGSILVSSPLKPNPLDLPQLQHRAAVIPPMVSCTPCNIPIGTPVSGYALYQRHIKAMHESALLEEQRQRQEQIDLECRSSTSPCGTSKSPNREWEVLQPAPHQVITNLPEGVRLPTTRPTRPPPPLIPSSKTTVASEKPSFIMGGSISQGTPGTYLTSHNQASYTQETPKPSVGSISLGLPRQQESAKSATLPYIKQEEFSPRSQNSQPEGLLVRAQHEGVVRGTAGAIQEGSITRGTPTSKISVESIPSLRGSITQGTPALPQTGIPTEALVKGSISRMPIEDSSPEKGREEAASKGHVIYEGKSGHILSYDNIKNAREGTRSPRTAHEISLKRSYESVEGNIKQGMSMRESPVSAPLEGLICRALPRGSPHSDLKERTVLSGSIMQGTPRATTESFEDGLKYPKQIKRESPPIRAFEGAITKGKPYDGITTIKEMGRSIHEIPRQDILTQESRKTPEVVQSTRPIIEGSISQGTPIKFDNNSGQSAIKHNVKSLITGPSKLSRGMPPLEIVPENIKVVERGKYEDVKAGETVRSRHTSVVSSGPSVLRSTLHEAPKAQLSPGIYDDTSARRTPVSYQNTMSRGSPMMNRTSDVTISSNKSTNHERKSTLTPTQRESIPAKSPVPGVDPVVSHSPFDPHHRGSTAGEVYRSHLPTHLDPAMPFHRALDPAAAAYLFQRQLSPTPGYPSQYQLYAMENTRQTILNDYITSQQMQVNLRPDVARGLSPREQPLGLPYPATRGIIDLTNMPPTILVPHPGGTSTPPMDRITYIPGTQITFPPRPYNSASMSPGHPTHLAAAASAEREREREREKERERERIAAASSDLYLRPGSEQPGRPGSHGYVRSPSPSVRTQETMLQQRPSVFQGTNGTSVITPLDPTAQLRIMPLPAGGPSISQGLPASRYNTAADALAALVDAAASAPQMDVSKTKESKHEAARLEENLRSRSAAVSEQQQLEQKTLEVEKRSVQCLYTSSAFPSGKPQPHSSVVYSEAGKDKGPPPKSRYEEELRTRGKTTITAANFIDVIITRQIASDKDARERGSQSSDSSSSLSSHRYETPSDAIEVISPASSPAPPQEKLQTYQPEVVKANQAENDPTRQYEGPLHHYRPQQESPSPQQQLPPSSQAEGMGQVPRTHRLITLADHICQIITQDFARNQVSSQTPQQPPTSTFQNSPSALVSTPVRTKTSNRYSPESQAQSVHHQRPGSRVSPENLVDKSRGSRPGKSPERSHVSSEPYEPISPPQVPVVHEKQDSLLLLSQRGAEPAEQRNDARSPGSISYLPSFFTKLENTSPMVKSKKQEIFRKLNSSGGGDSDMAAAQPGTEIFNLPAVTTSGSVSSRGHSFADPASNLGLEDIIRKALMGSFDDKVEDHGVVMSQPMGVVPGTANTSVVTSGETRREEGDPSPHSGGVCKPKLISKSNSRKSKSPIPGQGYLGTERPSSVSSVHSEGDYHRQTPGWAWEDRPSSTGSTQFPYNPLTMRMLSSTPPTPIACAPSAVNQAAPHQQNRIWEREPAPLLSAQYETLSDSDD

Target: Delta-like homolog 1 (DLK1) (human (endogenous in A549 and H1299)) (UniProt P80370)
Assay: affinity purification with mass spectrometry; A549 total cell lysate incubated with rabbit polyclonal anti-DLK1 antibody and protein A/G beads overnight at 4°C; bands differing from the normal rabbit IgG control cut from the Coomassie-stained SDS/PAGE gel for LC-MS; two independent pull-downs

nuclear receptor corepressor 1 (NCOR1) (from UniProt O75376 1-2440)
binding: binds

These are yes or no findings as the source states them, for the method shown. In cells and extracts the contact can be indirect. Here binding means that the protein was enriched with, or labelled near, the bait; the list need not be complete.
